Laboratory results from the supplement of paper PMC10849652.
This is one part of the list.

Sequences of proteins named here, by UniProt entry; tags and fusion partners are left off. A change or cut given only in a name is not applied to a line headed by its entry.
UniProt Q5VZ89: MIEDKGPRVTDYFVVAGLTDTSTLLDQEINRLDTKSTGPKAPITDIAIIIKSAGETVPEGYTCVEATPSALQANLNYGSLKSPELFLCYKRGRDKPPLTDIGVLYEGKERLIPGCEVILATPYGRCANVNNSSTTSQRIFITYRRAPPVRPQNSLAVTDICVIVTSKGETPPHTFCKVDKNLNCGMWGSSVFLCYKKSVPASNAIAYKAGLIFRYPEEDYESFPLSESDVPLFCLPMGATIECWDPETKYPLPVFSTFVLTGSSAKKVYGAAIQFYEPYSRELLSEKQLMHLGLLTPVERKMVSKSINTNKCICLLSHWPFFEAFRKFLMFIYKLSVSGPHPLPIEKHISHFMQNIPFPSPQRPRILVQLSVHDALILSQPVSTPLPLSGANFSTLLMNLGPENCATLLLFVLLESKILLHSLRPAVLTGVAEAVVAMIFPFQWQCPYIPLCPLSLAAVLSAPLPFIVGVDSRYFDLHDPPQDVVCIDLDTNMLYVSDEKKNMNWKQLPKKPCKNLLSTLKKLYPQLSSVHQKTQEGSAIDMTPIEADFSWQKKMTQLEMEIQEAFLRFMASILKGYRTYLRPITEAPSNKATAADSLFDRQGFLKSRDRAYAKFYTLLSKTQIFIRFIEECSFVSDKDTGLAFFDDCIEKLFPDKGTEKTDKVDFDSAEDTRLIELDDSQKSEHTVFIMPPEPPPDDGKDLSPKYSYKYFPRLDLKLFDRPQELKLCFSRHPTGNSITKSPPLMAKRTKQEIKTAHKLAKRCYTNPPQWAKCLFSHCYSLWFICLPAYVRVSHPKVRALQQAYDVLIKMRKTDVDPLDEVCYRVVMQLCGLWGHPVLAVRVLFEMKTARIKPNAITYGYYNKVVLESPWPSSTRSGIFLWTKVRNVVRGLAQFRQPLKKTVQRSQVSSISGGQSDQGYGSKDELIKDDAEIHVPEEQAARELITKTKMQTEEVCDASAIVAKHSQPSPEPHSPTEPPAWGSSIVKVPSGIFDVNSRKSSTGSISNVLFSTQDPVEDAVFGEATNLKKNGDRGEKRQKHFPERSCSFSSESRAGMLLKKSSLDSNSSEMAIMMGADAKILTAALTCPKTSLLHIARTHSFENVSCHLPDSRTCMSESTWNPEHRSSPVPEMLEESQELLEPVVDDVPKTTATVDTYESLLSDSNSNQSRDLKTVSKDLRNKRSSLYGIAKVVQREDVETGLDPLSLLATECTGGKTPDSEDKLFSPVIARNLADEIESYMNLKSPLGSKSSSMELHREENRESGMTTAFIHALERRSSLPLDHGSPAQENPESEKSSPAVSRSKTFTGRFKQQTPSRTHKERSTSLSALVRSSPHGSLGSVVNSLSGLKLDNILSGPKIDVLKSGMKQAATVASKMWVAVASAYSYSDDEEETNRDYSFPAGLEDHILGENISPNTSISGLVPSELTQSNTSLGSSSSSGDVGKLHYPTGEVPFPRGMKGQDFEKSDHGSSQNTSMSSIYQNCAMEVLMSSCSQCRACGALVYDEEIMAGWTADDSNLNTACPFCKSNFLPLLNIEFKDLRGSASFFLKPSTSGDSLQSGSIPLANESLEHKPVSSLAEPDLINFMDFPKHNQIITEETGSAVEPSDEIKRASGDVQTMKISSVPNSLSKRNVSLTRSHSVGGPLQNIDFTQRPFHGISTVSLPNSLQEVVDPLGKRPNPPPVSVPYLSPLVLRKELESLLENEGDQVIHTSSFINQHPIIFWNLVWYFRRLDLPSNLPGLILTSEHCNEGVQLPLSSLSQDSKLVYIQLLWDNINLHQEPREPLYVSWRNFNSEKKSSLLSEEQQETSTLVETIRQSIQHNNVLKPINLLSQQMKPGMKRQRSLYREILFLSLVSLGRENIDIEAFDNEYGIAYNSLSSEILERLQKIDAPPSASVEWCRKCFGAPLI
UniProt P35659: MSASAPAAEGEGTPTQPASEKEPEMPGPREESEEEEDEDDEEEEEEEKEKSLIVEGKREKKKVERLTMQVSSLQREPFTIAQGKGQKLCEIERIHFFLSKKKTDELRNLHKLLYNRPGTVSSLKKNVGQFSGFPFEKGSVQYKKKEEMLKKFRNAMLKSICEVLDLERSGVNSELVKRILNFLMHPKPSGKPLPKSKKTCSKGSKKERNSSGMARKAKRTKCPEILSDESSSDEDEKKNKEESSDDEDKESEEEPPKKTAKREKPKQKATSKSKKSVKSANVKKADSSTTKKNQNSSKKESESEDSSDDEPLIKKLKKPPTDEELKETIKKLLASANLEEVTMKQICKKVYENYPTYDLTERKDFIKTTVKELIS
UniProt Q16643: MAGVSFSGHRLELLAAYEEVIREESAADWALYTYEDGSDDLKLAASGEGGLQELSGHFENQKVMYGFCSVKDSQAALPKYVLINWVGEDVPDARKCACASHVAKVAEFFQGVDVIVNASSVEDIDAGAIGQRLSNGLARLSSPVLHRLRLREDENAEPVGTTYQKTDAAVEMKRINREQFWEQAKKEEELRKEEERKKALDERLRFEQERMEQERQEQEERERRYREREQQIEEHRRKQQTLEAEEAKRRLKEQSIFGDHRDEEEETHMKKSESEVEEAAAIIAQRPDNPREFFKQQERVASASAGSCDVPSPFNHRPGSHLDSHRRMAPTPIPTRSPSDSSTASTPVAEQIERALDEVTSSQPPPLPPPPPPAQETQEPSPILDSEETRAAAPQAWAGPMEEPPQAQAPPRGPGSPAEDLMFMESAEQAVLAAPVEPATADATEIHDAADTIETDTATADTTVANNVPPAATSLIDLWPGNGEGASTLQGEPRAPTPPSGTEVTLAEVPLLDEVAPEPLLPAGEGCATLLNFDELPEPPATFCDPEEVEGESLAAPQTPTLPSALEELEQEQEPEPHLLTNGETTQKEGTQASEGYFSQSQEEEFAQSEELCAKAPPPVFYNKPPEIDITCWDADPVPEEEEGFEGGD
UniProt Q9BTE1, whole entry, looked up: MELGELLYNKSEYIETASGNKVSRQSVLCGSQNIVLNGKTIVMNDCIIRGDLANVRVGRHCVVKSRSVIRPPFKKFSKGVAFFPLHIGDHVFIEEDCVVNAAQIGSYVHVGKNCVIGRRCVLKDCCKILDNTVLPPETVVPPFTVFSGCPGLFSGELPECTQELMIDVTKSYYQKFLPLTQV
UniProt Q92466: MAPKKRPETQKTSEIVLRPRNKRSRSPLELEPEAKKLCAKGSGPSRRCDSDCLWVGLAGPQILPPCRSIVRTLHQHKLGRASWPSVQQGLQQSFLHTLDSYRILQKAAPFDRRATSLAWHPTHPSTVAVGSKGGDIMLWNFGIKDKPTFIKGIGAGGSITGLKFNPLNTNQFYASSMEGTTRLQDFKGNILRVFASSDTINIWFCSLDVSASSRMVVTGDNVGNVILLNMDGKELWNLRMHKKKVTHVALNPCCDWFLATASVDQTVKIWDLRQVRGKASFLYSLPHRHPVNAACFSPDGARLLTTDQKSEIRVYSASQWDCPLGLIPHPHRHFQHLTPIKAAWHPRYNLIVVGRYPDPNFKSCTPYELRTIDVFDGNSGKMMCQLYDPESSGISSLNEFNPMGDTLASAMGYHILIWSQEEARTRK
UniProt Q9H4E7, whole entry, looked up: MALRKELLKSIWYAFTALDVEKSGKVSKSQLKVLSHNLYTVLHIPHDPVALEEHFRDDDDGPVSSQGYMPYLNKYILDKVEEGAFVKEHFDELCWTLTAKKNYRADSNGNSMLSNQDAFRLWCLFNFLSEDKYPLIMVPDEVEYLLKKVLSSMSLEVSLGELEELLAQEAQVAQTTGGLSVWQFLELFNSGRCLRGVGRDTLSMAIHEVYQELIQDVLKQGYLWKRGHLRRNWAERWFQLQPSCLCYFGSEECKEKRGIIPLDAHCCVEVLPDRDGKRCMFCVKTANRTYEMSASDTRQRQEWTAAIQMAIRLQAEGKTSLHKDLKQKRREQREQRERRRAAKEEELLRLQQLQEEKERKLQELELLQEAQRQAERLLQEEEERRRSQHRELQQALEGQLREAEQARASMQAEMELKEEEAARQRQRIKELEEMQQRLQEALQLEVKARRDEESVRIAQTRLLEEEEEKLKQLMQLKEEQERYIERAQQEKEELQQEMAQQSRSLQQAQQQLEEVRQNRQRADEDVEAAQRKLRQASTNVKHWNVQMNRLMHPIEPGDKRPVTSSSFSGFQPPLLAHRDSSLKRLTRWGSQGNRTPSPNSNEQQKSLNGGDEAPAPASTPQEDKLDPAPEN
UniProt P61803: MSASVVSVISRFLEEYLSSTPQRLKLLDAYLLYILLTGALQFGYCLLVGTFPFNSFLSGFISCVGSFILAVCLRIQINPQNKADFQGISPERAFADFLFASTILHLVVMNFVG
UniProt P30046: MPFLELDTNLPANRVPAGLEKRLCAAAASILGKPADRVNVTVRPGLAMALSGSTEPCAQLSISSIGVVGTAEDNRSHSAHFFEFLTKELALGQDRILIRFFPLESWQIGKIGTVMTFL
UniProt Q9NPI6: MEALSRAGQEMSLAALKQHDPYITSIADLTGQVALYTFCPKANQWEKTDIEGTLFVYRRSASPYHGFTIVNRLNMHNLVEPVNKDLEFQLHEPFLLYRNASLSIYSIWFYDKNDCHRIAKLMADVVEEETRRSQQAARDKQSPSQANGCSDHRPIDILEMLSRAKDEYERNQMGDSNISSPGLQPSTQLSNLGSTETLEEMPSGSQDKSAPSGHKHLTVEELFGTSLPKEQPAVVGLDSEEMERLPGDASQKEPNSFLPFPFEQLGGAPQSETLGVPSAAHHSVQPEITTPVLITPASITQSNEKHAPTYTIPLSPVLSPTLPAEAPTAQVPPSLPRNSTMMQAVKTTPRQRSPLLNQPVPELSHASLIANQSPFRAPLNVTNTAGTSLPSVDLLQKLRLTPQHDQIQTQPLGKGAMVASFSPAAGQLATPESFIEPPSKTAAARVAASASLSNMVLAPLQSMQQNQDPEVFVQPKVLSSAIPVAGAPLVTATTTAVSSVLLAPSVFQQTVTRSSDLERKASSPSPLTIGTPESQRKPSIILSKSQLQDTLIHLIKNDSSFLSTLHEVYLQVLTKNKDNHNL
UniProt Q5TDH0: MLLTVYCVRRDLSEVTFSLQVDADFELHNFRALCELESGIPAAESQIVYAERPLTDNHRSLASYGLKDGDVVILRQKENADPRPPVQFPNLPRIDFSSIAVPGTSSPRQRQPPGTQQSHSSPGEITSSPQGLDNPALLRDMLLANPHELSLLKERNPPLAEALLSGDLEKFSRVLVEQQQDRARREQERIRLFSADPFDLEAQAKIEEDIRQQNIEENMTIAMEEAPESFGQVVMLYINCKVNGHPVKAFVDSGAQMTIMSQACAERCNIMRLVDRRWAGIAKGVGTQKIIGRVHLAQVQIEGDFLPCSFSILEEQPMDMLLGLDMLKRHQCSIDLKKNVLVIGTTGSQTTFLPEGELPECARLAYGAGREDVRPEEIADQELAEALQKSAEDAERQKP
UniProt Q92499: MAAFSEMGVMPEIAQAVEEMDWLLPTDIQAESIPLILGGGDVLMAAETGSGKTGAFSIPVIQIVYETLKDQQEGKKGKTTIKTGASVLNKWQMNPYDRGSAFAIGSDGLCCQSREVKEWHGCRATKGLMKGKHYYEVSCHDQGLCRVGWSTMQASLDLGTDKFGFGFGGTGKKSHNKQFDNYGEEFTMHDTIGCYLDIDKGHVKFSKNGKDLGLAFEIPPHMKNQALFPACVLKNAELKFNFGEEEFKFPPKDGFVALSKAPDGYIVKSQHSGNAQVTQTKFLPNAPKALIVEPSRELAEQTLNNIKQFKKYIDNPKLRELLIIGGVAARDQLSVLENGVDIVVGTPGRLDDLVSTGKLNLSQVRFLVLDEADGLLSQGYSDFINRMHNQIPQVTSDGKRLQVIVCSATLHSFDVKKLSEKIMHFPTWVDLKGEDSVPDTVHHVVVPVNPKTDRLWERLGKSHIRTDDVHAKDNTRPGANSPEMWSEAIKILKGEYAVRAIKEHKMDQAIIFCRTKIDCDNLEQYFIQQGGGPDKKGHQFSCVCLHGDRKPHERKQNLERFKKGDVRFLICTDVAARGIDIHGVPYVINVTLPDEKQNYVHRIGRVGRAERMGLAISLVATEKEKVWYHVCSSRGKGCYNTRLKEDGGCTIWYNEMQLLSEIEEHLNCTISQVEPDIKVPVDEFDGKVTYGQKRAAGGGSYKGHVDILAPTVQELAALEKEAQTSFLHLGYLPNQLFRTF
UniProt Q9BUN8: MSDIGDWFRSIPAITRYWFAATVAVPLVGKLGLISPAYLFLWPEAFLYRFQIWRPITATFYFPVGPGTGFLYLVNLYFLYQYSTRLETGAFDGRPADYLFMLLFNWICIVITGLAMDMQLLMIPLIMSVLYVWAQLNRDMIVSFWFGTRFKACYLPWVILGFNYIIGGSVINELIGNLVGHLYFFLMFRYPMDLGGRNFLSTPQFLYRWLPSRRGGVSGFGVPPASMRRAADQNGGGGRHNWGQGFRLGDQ
UniProt O43583: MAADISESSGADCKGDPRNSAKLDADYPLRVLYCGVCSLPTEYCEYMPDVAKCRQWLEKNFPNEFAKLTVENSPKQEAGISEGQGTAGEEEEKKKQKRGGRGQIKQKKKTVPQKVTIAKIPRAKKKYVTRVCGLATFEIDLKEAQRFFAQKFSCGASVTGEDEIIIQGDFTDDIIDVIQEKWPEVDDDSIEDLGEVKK

Compound: c1cn2cc(-c3ccc4cn[nH]c4c3)nc(Nc3ccc(N4CCOCC4)cc3)c2n1 [entospletinib]
Assay: log2 fold change, soluble protein after heating vs DMSO (PISA); higher = thermal stabilisation; K562 lysate, 10 uM; active = over 0.2 and 3.5 SD of the protein, either way, in both replicates (recomputed)
Summary of the method: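 Soluble protein was defined as the supernatant remaining after 21,000xg for 90 min, following pooling of heated aliquots and adjustment to 0.5% NP-40 at 4°C. Before that, crude K562 extract at 1 mg/mL protein in PBS pH 7.4 with 1 mM MgCl2 was treated with 10 μM compound for 30 min and heated for 3 min across 48°C-58°C. Quantification used TMTpro 16plex LC-MS/MS with channel sums equalised, and values are log-two fold changes in thermal stability relative to solvent controls from duplicates.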

log2 fold change, inactive:
DENND4C (UniProt Q5VZ89) -0.012, DEK (UniProt P35659) 0.019, DBN1 (UniProt Q16643) -0.01, DDX21 (UniProt Q9NR30) -0.005, DCTN5 (UniProt Q9BTE1) -0.127, D2HGDH (UniProt Q8N465) 0.011, DDX39B isoform 2 (UniProt Q13838) -0.004, DDB2 (UniProt Q92466) 0.019, DDX59 (UniProt Q5T1V6) 0.023, CYP51A1 (UniProt Q16850) 0.024, DEF6 (UniProt Q9H4E7) 0.022, DAD1 (UniProt P61803) 0.093, DERPC (UniProt P0CG12) -0.019, DDX39A (UniProt O00148) -0.033, DCTN1 (UniProt Q14203) 0.001, DDA1 (UniProt Q9BW61) 0.054, DCK (UniProt P27707) 0.008, DDT (UniProt P30046) -0.064, DERL2 (UniProt Q9GZP9) -0.01, DBR1 (UniProt Q9UK59) -0.007, DAGLB (UniProt Q8NCG7) 0.043, DARS2 (UniProt Q6PI48) -0.012, DCP1A (UniProt Q9NPI6) 0.027, DCAF8 (UniProt Q5TAQ9) -0.021, DDI2 isoform 3 (UniProt Q5TDH0) 0, DDX1 (UniProt Q92499) -0.01, DERL1 (UniProt Q9BUN8) -0.001, DDX6 (UniProt P26196) -0.005, DENR (UniProt O43583) -0.007
